Measurements taken from paper PMC10413357.
These are yes or no findings as the source states them, for the method shown. Binding seen in cells or lysates may run through a third protein. These calls come from enrichment with a bait or labelling near it, and not all partners need be listed.

Chains of the proteins cited; added tags and fusions are not shown.
UniProt P09874: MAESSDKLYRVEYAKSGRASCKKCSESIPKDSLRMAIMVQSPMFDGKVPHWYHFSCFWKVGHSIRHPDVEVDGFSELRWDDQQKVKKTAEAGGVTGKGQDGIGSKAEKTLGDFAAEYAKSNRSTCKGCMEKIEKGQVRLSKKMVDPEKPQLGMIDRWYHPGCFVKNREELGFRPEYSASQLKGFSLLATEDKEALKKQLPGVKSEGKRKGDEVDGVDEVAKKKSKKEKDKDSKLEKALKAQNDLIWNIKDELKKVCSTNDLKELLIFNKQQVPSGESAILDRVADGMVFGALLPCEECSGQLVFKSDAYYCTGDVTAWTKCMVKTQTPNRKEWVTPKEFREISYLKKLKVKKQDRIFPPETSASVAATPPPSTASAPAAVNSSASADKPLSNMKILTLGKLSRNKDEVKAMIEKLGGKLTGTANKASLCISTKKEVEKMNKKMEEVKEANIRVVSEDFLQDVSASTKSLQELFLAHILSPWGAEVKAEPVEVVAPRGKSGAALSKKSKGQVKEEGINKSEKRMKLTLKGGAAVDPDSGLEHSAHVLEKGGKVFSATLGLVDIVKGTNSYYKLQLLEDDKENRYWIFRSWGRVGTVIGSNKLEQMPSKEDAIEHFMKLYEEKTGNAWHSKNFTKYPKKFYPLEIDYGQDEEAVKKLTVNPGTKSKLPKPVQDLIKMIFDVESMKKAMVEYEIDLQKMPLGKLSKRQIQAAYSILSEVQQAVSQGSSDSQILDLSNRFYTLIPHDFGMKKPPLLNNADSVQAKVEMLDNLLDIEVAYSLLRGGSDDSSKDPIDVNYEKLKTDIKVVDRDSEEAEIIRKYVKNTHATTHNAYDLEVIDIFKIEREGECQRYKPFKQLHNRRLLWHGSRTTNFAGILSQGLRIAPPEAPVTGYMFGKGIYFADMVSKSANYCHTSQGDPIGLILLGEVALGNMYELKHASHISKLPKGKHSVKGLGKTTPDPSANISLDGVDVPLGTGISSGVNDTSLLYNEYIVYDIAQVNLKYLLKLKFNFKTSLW

Biological target: S-protein-FLAG–Streptavidin-binding peptide (SFB)-tagged RNF168 (UniProt Q8IYW5)
Assay: affinity purification with mass spectrometry; tandem affinity purification (Streptavidin Sepharose, biotin elution, then S-protein beads) of SFB-RNF168 from the Turbonuclease-digested chromatin fraction of transfected HEK293T cells; NETN buffer (150 mM NaCl, 0.5 mM EDTA, 20 mM Tris-HCl pH 8.0, 0.5% NP-40), 4 °C

binding: binds
Substance: PARP1 (from UniProt P09874 1-1014)
